# Over roughly 33,000 sequences, “E-score (-0.5 to 0.5)” has its median near -0.0059; the highest 2% begin near 0.26. The list shows a part of the results.
# Target: T1, Cin5 (UniProt P40917)
# T1 sequence: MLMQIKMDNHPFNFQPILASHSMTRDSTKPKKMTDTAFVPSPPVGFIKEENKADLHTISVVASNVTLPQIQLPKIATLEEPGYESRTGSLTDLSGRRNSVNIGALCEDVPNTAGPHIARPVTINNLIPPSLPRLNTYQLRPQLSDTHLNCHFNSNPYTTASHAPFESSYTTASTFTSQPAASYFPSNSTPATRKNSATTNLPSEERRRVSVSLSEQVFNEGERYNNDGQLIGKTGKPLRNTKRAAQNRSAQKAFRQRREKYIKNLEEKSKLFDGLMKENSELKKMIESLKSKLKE
# Assay: PBM E-score (8-mer binding enrichment) (E-score (-0.5 to 0.5)); higher = stronger / more preferred TF binding
# Details: protein concentration: 100 nM; construct: GST-full length
# Method: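 Universal 'all 10-mer' protein binding microarrays (Agilent AMADID 015681) probed with GST-tagged S. cerevisiae TFs (full-length or DBD) made by in vitro transcription/translation (PURExpress), about 100-200 nM. Bound TF was detected with fluorescent anti-GST. Each ungapped 8-mer (which stands for itself and its reverse complement) is scored by the PBM enrichment score (E-score), a modified Wilcoxon-Mann-Whitney statistic from -0.5 to +0.5, computed with the Universal PBM Analysis Suite. Scale: above 0.35 generally sequence-specific binding.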
row,Sequence,PBM E-score
1,AAGGGAGC,-0.226
2,AAGCATGT,0.18
3,GATAAAGC,0.00527
4,CCCAGTCA,-0.156
5,CCGGATCC,0.0723
6,GGGTGTAC,0.00026
7,ACCTGACA,0.0412
8,ACTATGTG,0.0904
9,ATTACTGG,0.107
10,GTAGTCGA,-0.0121
11,AGTACATG,0.118
12,AGCGCAGG,-0.123
13,ACAGTCTC,-0.0599
14,CGATCACG,0.117
15,CGGCCACG,-0.193
16,CGCGAAGC,0.105
17,CAGCAGGC,-0.126
18,CGGACTAC,0.0428
19,ACTTAGAG,-0.164
20,GCACCTTA,-0.0198
21,CAGGATTC,-0.0465
22,GGAATTGA,0.199
23,ACTAATGA,0.196
24,ATTGAAAC,0.174
25,TCCGCTCA,-0.0629

row,Sequence,PBM E-score
1,CACTCGTA,-0.12
2,GGGTTACA,-0.0584
3,ACGTATTA,0.298
4,ATCCTACC,-0.0227
5,CTCGCAGA,-0.172
6,AGCCGGTG,-0.0851
7,GAGGGTAC,-0.147
8,AGGTGATC,0.109
9,ACGTCCAT,-0.0491
10,TAGAACTA,0.0399
11,CGGCAATA,0.182
12,AGCCAGGC,-0.0681
13,CCTACGTA,0.122
14,CTGGATCA,-0.031
15,AAATGGCG,0.021
16,CGAATTCA,0.0951
17,TGATCACA,0.0609
18,GGAGTTCA,-0.0752
19,AGCAATGA,0.13
20,AGCAACGG,0.198
21,ATGAGGCG,-0.14
22,ATCGGTTG,0.0626
23,CTGGGGGC,-0.397
24,ACGATAGT,0.103
25,TCGTCGCA,0.0856

row,Sequence,PBM E-score
1,AACGAACT,-0.0164
2,GAGCTGCC,-0.163
3,CGGAAAGA,0.188
4,CCAAACTA,0.174
5,GACACTGC,-0.127
6,CCATAACC,0.00089
7,ACTCACGA,-0.0161
8,ATTTTTAG,-0.0483
9,AAGGAGCA,-0.132
10,CACAATCC,0.0827
11,CTCGACAG,-0.103
12,CTGGTGTC,0.00482
13,AATCTCAT,0.157
14,CTAGGGGA,-0.169
15,CAGTCACA,-0.0381
16,CCGTCTGC,-0.0138
17,AAATGTCG,0.0976
18,AGCCAAAT,0.0853
19,TATTACAA,0.189
20,ATGCGGTA,-0.053
21,ACAACGAG,-0.0409
22,GATATGCC,0.0475
23,CGAGAACA,0.0489
24,CCGTGGTC,-0.148
25,GGAAGCCA,-0.251

row,Sequence,PBM E-score
1,CCGCACCA,0.0126
2,CAGATAGA,-0.122
3,CCGAGCAA,-0.0639
4,CGTAGTGC,-0.0666
5,CCAAGAGC,-0.149
6,ATAGGCTC,-0.0723
7,CCGAAACG,-0.102
8,CCGGGAGA,-0.0997
9,CCCCAGTA,0.00957
10,GTCTTAAC,-0.0459
11,CAATTTAC,0.144
12,AGTGATCC,-0.0661
13,TAAACTAA,0.252
14,CGAAGAAA,0.178
15,GCCCACGC,-0.163
16,CGTCTTCA,-0.00914
17,ACGGGTGA,-0.0265
18,CATAATTC,0.138
19,ACGAGTCA,-0.257
20,AAATGTAC,0.19
21,ACACTATC,0.142
22,GACGACTA,-0.12
23,TCACACCA,0.0417
24,CCTCTCCA,-0.359
25,CAGAATGC,0.0309

# Given bar-delimited: entries from further up.
row | Sequence | PBM E-score
16 | CGTCTTCA | -0.00914
17 | ACGGGTGA | -0.0265
18 | CATAATTC | 0.138
19 | ACGAGTCA | -0.257
20 | AAATGTAC | 0.19

# More entries follow.

row,Sequence,PBM E-score
1,AGCCGGTC,-0.234
2,GATCCACA,-0.104
3,AAATTCCG,0.158
4,TGCCGGAA,0.0539
5,GCTGTTTA,0.204
6,GCCCATTA,0.0374
7,ATCTCGGC,0.0844
8,GACAAACC,-0.0583
9,CAAAAAAC,0.101
10,ACAATAAG,0.0526
11,GCAACTGC,0.0384
12,CCAGAGAA,0.0393
13,ACTTGGGG,0.154
14,AATGCCCA,-0.0906
15,CGTTCCAG,-0.0777
16,TACAGAGA,-0.107
17,GGGAAGCA,-0.186
18,ACACTGGC,-0.0673
19,CGCCAGCC,-0.031
20,CGGCGGAC,-0.184
21,ACGCCCCA,0.198
22,CTTCTTGC,-0.0659
23,CGCGGCCG,-0.176
24,GTGCTTCA,0.132
25,AAGACAAT,0.202

# An excerpt of the results above:
row,Sequence,PBM E-score
24,GTGCTTCA,0.132
25,AAGACAAT,0.202

# (continued)

row,Sequence,PBM E-score
1,CCTTCTAC,-0.0521
2,AATGTACG,0.00418
3,AGTATAGA,0.171
4,ACAGTTCC,0.116
5,GAAGTCAC,-0.162
6,CTCTCAAG,0.00161
7,ATTGTGCA,0.0337
8,TATTTACA,0.136
9,CTCCCCCC,-0.345
10,ATCGACTG,0.101
11,AGCTCTTC,0.0165
12,CCTTGTAG,-0.222
13,ATTCGGAG,-0.0144
14,CATAATGA,0.132
15,GGGCCCGA,-0.0174
16,CGATGGTC,-0.0796
17,CAGCAACA,0.0911
18,ATCAATCG,0.159
19,CCGGGCAC,-0.124
20,AGGCACCC,-0.247
21,AAGGCAGC,-0.0607
22,ACATATTG,0.0935
23,CACCCGGG,-0.168
24,CCAGAAAG,0.0242
25,AGCTTAGA,0.166

row,Sequence,PBM E-score
1,AGGTGATA,-0.0057
2,CGTCAACA,-0.128
3,CAAGAGTG,-0.156
4,AGCTTACT,0.201
5,TACGAAGA,0.0419
6,CCTGCTTC,-0.193
7,CATATGCA,0.0719
8,GTGCAAAC,0.00041
9,GGAAGGCC,-0.25
10,ACCCAAAG,-0.124
11,GTGTAGCA,-0.113
12,CGGGAGCC,-0.238
13,CCTGTCCG,-0.174
14,ATTCGTTG,0.162
15,GATGGGAC,-0.0483
16,GATGTAAC,0.071
17,ATGGTCTG,0.0201
18,CATTCGAA,0.124
19,ATGCCGTC,-0.0719
20,GCTTAATA,0.207
21,AAACGGGC,-0.0703
22,TCACTCAA,0.12
